Assay results published in US20160349221A1, “METHODS FOR MASS SPECTROMETRIC QUANTITATION OF ANALYTES EXTRACTED FROM A MICROSAMPLING DEVICE” (QUEST DIAGNOSTICS INVESTMENTS LLC, priority 2015, published 2016).

Legend:
[1] = linear range, whole blood calibrators; for 10 uL Tip Range: 10 uL MITRA tip; for 15 uL Tip range: 15 uL MITRA tip
[2] = Anti-epileptic drugs LC-MS/MS from whole blood on 20 uL MITRA tips: within run precision
[3] = Mass spectrometric assay of steroids from 20 uL MITRA tips: analytical sensitivity (LOQ) and linear range; settings: for Linear Range: 20 uL MITRA tip, preliminary analytical measurable range; for LOQ: preliminary LOQ, lowest reproducible concentration with CV ≦20%
[4] = LC-MS/MS assay of benzodiazepines from whole blood calibrators on 10 uL and 20 uL MITRA tips: LOQ and linear range
[5] = 20 uL tips, whole blood calibrators
[6] = linear range, whole blood calibrators, 10 uL MITRA tip
[7] = linear range, whole blood calibrators, 20 uL MITRA tip

Structure (SMILES) | Linear Range [3] | LOQ [3] | LOQ on Mitra Tip [4, 5] | 10 uL Tip Range [4, 6] | 20 uL Tip Range [4, 7] | also measured
CC(=O)[C@]1(O)C=C[C@H]2[C@H]3Cc4ccc(O)c5c4[C@@]2(CCN3C)[C@H]1O5 [6MAM, 6-monoacetylmorphine] | – | – | – | – | – | 10 uL Tip Range [1]: 10 to 1000 ng/mL; 15 uL Tip range [1]: 10 to 1000 ng/mL
NC(=O)N1c2ccccc2C2OC2c2ccccc21 (centres unmarked) [10,11 Carbamazepine Epoxide] | – | – | – | – | – | % Accuracy ([2]; High QC 15 ug/mL): 111.42%; MEAN of 10 runs ([2]; High QC 15 ug/mL): 16.71 µg/mL; % Accuracy ([2]; Low QC 3.75 ug/mL): 103.41%; MEAN of 10 runs ([2]; Low QC 3.75 ug/mL): 3.88 µg/mL; % Accuracy ([2]; Medium QC 7.5 ug/mL): 112.40%; MEAN of 10 runs ([2]; Medium QC 7.5 ug/mL): 8.43 µg/mL
C[C@]12CC[C@H]3[C@@H](CCC4=CC(=O)CC[C@@]43C)[C@@H]1CC[C@@H]2C(=O)CO [11-Deoxycorticosterone] | 100-10,000 ng/dL | 50 ng/dL | – | – | – | –
C[C@]12CCC(=O)C=C1CC[C@@H]1[C@@H]2CC[C@@]2(C)[C@H]1CC[C@]2(O)C(=O)CO [11-Deoxycortisol] | 100-10,000 ng/dL | 50 ng/dL | – | – | – | –
CC(=O)[C@@]1(O)CC[C@H]2[C@@H]3CCC4=CC(=O)CC[C@]4(C)[C@H]3CC[C@@]21C [17-Hydroxyprogesterone] | 50-10,000 ng/dL | 40 ng/dL | – | – | – | –
CC(=O)[C@@]1(O)CC[C@H]2[C@@H]3CCC4=CC(=O)CC[C@]4(C)[C@H]3[C@@H](O)C[C@@]21C [21-Deoxycortisol] | 100-10,000 ng/dL | 75 ng/dL | – | – | – | –
Cc1nnc2n1-c1ccc(Cl)cc1C(c1ccccc1)=NC2 [Alprazolam] | – | – | 5 ng/mL | 10 to 1000 ng/mL | 5 to 1000 ng/mL | –
C[C@]12CCC(=O)C=C1CC[C@@H]1[C@@H]2CC[C@]2(C)C(=O)CC[C@@H]12 [Androstenedione] | 50-10,000 ng/dL | 40 ng/dL | – | – | – | –
O=C1CN=C(c2ccccn2)c2cc(Br)ccc2N1 [Bromazepam] | – | – | 5 ng/mL | 10 to 1000 ng/mL | 5 to 1000 ng/mL | –
NC(=O)N1c2ccccc2C=Cc2ccccc21 [Carbamazepine] | – | – | – | – | – | % Accuracy ([2]; High QC 12 ug/mL): 113.49%; MEAN of 10 runs ([2]; High QC 12 ug/mL): 13.62 µg/mL; % Accuracy ([2]; Low QC 3 ug/mL): 111.97%; MEAN of 10 runs ([2]; Low QC 3 ug/mL): 3.36 µg/mL; % Accuracy ([2]; Medium QC 6 ug/mL): 118.37%; MEAN of 10 runs ([2]; Medium QC 6 ug/mL): 7.10 µg/mL
CN1C(=O)CC(=O)N(c2ccccc2)c2cc(Cl)ccc21 [Clobazam] | – | – | 1 ng/mL | 2.5-1000^ ng/mL | 1 to 1000 ng/mL | –
O=C1CN=C(c2ccccc2Cl)c2cc([N+](=O)[O-])ccc2N1 [Clonazepam] | – | – | 2.5 ng/mL | 5 to 1000 ng/mL | 2.5-1000^ ng/mL | –
C[C@]12C[C@H](O)[C@H]3[C@@H](CCC4=CC(=O)CC[C@@]43C)[C@@H]1CC[C@@H]2C(=O)CO [Corticosterone] | 200-10,000 ng/dL | 100 ng/dL | – | – | – | –
C[C@]12CCC(=O)C=C1CC[C@@H]1[C@@H]2[C@@H](O)C[C@@]2(C)[C@H]1CC[C@]2(O)C(=O)CO [Cortisol] | 1-50^ ug/dL | 250 ng/dL | – | – | – | –
C[C@]12CCC(=O)C=C1CC[C@@H]1[C@@H]2C(=O)C[C@@]2(C)[C@H]1CC[C@]2(O)C(=O)CO [Cortisone] | 0.5 to 10 µg/dL | 200 ng/dL | – | – | – | –
CN1C(=O)CN=C(c2ccccc2)c2cc(Cl)ccc21 [Diazepam] | – | – | 1 ng/mL | 2.5-1000^ ng/mL | 1 to 1000 ng/mL | –
CN1C(=O)CN=C(c2ccccc2F)c2cc([N+](=O)[O-])ccc21 [Flunitrazepam] | – | – | – | – | – | 10 uL Tip Range [4]: 1 to 1000 ng/mL; 20 uL Tip Range [4]: 0.5-1000^ ng/mL; LOQ on Mitra Tip [4]: 0.5 ng/mL

Structure (SMILES) | Linear Range [3] | LOQ [3] | LOQ on Mitra Tip [4, 5] | 10 uL Tip Range [4, 6] | 20 uL Tip Range [4, 7] | also measured
CCN(CC)CCN1C(=O)CN=C(c2ccccc2F)c2cc(Cl)ccc21 [Flurazepam] | – | – | 0.5 ng/mL | 1 to 1000 ng/mL | 0.5-1000^ ng/mL | –
O=C1Nc2ccc(Cl)cc2C(c2ccccc2Cl)=NC1O (centres unmarked) [Lorazepam] | – | – | 1 ng/mL | 2.5-1000^ ng/mL | 1 to 1000 ng/mL | –
CN1CCN=C(c2ccccc2)c2cc(Cl)ccc21 [Medazepam] | – | – | 1 ng/mL | 2.5-1000^ ng/mL | 1 to 1000 ng/mL | –
Cc1ncc2n1-c1ccc(Cl)cc1C(c1ccccc1F)=NC2 [Midazolam] | – | – | 10 ng/mL | 25 to 1000 ng/mL | 10 to 1000 ng/mL | –
O=C1CN=C(c2ccccc2)c2cc([N+](=O)[O-])ccc2N1 [Nitrazepam] | – | – | 1 ng/mL | 2.5-1000^ ng/mL | 1 to 1000 ng/mL | –
O=C1CN=C(c2ccccc2)c2cc(Cl)ccc2N1 [Nordiazepam] | – | – | 5 ng/mL | 10 to 1000 ng/mL | 5 to 1000 ng/mL | –
COc1ccc2c3c1O[C@H]1C(=O)CC[C@@]4(O)[C@@H](C2)NCC[C@]314 [Noroxycodone] | – | – | – | – | – | 10 uL Tip Range [1]: 10 to 1000 ng/mL; 15 uL Tip range [1]: 5 to 1000 ng/mL
COc1ccc2c3c1O[C@H]1C(=O)CC[C@@]4(O)[C@@H](C2)N(C)CC[C@]314 [Oxycodone] | – | – | – | – | – | 10 uL Tip Range [1]: 10 to 1000 ng/mL; 15 uL Tip range [1]: 5 to 1000 ng/mL
CN1CC[C@]23c4c5ccc(O)c4O[C@H]2C(=O)CC[C@@]3(O)[C@H]1C5 [Oxymorphone] | – | – | – | – | – | 10 uL Tip Range [1]: 5 to 1000 ng/mL; 15 uL Tip range [1]: 5 to 1000 ng/mL
O=C1CN=C(c2ccccc2Cl)c2cc(Br)ccc2N1 [Phenazepam] | – | – | 5 ng/mL | 10 to 1000 ng/mL | 5 to 1000 ng/mL | –
O=C1CN=C(c2ccccc2)c2cc(Cl)ccc2N1CC1CC1 [Prazepam] | – | – | 0.5 ng/mL | 1 to 1000 ng/mL | 0.5-1000^ ng/mL | –
CC(=O)[C@H]1CC[C@H]2[C@@H]3CCC4=CC(=O)CC[C@]4(C)[C@H]3CC[C@]12C [Progesterone] | 0.15 to 10 µg/dL | 100 ng/dL | – | – | – | –
CN1C(=O)C(O)N=C(c2ccccc2)c2cc(Cl)ccc21 (centres unmarked) [Temazepam] | – | – | 0.5 ng/mL | 1 to 1000 ng/mL | 0.5-1000^ ng/mL | –
C[C@]12CC[C@H]3[C@@H](CCC4=CC(=O)CC[C@@]43C)[C@@H]1CC[C@@H]2O [Testosterone] | 50-10,000 ng/dL | 40 ng/dL | – | – | – | –
Cc1ccsc1C(=CCCN1CCC[C@@H](C(=O)O)C1)c1sccc1C [Tiagabine] | – | – | – | – | – | MEAN of 10 runs ([2]; High QC […]): 0.14 µg/mL; % Accuracy ([2]; Low QC 0.03 ug/mL): 0.43%; MEAN of 10 runs ([2]; Low QC 0.03 ug/mL): 0.03 µg/mL; Run 1-10 measured concentration ([2]; Low QC 0.03 ug/mL): 0.03 µg/mL and 0.04 µg/mL; % Accuracy ([2]; Medium QC 0.06 ug/mL): 0.44%; MEAN of 10 runs ([2]; Medium QC 0.06 ug/mL): 0.07 µg/mL; Run 1-10 measured concentration ([2]; Medium QC 0.06 ug/mL): 0.07 µg/mL and 0.06 µg/mL and 0.08 µg/mL
Cc1nnc2n1-c1ccc(Cl)cc1C(c1ccccc1Cl)=NC2 [Triazolam] | – | – | 1 ng/mL | 2.5-1000^ ng/mL | 1 to 1000 ng/mL | –

Values joined by “and” are separate entries in the source; they are usually repeats but may differ in a detail not shown here. Equal entries are not always repeated. Where two headings read alike, the source gives them in different places.
